The results in this text go back to article PMC12587390, “Metabolite Identification Data in Drug Discovery, Part 1: Data Generation and Trend Analysis” (Molecular Pharmaceutics, 2025).

Values after ≈ are worked out from the molar mass of the structure shown.

Series [1] concerns human hepatocytes. Nature of the series: Metabolite identification in human hepatocyte incubations. It counts as in vitro ADME. As to conditions: 4 μM. As to the method:
(§1) Cryopreserved, pooled primary human, dog, and rat hepatocytes were obtained from BioIVT (previously Celsis IVT). L-15 Leibovitz buffer was placed in a water bath to reach 37 °C. Cryopreserved hepatocytes were transferred from a −150 °C freezer on dry ice and immediately immersed in a preheated water bath kept at 37 °C for thawing. When only a small ice crystal could be seen, the content was emptied into a 50 mL falcon tube filled with warm buffer (maximum four vials/falcon tube). The suspension was centrifuged at room temperature for 3 min at 50 g. The supernatant was removed, the pellet was resuspended in a small volume of buffer, and the falcon tube was refilled with buffer, followed by another centrifugation to wash away any remaining storage buffer. Thereafter, the supernatant was removed, and the pellet was dissolved in a small volume of buffer and diluted to a concentration of about 3–5 million cells/mL. After counting the cells using a Casy cell counter, the suspension was diluted to 1 million viable cells/mL and kept at room temperature until use. The viability cutoff was 80%.
(§2) An aliquot of 245 μL of hepatocyte suspension was added to a round-bottomed 96-deep-well plate using a manual multipipette. The deep-well plate was preincubated for 15 min at 37 °C and 13 Hz. […]

For series [2], the system named is dog hepatocytes. Description: Metabolite identification in dog hepatocyte incubations. It counts as in vitro ADME. As to conditions: Cmpd 16 incubated for 120 min, 4 μM. As to the method:
as §1, §2

Series [3] in a line: physchem. The following applies: pH 7.4.
Series [4] is described as follows: physchem. The following applies: 25 °C, pH 7.4, aqueous buffer, thermodynamic from solid.

Consider `Cn1cc(NC(=O)C2CCCCC2C(=O)c2ccc(-c3cc[nH]n3)cc2)c(C(F)(F)F)n1` (stereo not shown) [Cmpd 16, Cn1cc(NC(=O)[C@@H]2CCCC[C@H]2C(=O)c2ccc(-c3cc[nH]n3)cc2)c(C(F)(F)F)n1], for which the “Metabolites / metabolic pathways identified” value in series [1] was “amide hydrolysis was not detected”. In series [2], the “% of the total MS area, Dog Hepatocytes (Mixed gender)” value is reported as 91%. For the same compound, the logD in series [3] is 3.4. Besides, the solubility in series [4] came to 73 µM (≈ 32.5 µg/mL).

What is called logD is lipophilicity at a set pH, counting ionised and neutral species. A lower logD goes with a more hydrophilic compound. In general, solubility refers to how much of the substance goes into solution per volume.
